# Earlier results as cited in patent US20200121645A1, “COMPOSITION FOR PREVENTING OR TREATING EGFR-MUTANT NON-SMALL CELL LUNG CANCER” (THE ASAN FOUNDATION, priority 2018, published 2020).
# At least one structure is not confirmed: it was looked up by name or label, or the drawing left a doubt.
# Conditions: Miller V A, et al.; cited from earlier work
compound,measurement,value
CN(C)C/C=C/C(=O)Nc1cc2c(Nc3ccc(F)c(Cl)c3)ncnc2cc1O[C@H]1CCOC1 [afatinib],efficacy in phase III clinical study,limited efficacy
